The other results are listed elsewhere or left out. Most entries show no effect beyond the scatter of the controls.

Chains of the proteins cited; added tags and fusions are not shown. Lines headed by an entry give the natural chain unless they say otherwise; changes in a name come on top.
UniProt P63165, whole entry: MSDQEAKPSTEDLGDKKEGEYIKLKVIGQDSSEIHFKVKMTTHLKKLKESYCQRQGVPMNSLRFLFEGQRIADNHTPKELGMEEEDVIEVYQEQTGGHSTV
UniProt P81877: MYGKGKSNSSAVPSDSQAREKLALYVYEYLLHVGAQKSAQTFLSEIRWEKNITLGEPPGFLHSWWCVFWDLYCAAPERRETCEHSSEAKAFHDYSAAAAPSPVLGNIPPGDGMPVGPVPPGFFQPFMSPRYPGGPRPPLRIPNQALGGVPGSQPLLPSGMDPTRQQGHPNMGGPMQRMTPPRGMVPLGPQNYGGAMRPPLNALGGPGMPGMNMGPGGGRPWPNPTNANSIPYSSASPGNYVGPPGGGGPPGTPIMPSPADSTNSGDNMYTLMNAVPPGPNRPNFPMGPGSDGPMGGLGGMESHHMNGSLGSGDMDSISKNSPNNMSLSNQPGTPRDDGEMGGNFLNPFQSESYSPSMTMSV
UniProt P55197: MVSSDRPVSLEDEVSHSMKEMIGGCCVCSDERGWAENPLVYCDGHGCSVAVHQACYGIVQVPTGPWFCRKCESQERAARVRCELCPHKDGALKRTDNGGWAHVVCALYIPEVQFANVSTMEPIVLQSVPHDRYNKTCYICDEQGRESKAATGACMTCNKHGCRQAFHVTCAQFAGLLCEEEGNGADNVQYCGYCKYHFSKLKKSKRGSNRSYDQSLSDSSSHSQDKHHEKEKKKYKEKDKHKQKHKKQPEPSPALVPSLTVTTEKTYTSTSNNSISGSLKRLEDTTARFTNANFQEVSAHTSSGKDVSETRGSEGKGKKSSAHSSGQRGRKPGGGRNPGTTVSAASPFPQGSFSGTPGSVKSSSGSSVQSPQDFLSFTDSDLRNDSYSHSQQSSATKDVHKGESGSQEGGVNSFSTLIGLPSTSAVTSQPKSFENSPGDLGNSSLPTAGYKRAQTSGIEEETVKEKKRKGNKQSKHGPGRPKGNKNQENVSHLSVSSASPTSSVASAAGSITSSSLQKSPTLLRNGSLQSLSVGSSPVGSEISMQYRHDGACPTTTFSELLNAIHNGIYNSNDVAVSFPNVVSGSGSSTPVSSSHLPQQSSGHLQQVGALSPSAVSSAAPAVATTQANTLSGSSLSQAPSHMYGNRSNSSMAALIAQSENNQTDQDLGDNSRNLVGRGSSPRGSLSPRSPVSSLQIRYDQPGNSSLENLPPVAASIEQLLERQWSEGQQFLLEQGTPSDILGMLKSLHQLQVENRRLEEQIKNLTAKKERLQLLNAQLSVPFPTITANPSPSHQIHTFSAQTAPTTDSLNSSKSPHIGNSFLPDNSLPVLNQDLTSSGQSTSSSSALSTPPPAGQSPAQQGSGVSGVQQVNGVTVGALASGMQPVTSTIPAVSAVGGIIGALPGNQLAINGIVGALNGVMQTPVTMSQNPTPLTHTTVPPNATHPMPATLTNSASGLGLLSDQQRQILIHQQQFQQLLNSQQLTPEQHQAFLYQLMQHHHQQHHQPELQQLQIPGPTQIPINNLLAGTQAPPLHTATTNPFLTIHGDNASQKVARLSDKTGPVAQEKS
UniProt P61599, whole entry: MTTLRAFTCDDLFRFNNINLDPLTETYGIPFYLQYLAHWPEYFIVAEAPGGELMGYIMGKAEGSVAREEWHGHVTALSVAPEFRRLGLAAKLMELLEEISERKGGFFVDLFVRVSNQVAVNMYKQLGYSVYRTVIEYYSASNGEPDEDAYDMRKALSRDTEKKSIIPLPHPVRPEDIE
UniProt P61758, whole entry: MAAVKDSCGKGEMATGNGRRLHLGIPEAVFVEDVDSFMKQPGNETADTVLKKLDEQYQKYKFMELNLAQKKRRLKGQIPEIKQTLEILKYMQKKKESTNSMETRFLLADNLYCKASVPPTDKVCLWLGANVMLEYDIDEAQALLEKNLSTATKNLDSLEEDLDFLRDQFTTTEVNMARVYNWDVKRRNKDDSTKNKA
UniProt P63027, whole entry: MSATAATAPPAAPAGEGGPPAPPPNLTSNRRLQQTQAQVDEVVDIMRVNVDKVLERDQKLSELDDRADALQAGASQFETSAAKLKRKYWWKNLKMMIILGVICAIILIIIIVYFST
UniProt P68543: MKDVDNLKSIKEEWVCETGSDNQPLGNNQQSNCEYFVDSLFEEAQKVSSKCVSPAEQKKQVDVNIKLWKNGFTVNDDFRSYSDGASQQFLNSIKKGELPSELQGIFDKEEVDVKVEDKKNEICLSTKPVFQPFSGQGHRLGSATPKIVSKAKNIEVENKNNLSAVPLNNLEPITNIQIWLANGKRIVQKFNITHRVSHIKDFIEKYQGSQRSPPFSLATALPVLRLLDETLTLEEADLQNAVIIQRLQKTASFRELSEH
UniProt P58005: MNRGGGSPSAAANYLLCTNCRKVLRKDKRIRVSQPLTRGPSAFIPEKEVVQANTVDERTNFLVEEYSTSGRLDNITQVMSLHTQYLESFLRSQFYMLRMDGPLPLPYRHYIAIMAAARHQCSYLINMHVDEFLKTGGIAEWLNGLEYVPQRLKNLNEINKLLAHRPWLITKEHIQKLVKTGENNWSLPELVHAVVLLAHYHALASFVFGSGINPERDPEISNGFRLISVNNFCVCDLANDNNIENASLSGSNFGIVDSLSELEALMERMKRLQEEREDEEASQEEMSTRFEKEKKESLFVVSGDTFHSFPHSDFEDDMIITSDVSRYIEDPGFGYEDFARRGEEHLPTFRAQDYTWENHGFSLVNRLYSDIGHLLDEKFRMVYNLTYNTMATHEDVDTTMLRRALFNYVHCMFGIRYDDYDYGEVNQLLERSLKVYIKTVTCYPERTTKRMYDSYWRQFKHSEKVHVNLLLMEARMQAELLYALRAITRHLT
UniProt P61081: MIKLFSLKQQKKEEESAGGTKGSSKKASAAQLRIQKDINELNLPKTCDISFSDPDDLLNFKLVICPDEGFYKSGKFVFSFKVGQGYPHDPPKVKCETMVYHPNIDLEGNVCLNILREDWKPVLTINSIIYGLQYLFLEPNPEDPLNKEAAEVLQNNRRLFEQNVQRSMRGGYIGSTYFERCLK
UniProt P55916: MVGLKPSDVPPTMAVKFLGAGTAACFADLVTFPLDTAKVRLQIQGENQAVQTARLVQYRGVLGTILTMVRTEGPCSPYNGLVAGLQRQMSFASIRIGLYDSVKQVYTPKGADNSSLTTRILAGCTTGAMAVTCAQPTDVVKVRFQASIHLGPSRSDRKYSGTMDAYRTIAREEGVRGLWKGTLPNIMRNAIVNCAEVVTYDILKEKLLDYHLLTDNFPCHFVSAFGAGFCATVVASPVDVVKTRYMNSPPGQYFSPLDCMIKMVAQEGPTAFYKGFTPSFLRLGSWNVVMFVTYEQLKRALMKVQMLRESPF
UniProt P56524: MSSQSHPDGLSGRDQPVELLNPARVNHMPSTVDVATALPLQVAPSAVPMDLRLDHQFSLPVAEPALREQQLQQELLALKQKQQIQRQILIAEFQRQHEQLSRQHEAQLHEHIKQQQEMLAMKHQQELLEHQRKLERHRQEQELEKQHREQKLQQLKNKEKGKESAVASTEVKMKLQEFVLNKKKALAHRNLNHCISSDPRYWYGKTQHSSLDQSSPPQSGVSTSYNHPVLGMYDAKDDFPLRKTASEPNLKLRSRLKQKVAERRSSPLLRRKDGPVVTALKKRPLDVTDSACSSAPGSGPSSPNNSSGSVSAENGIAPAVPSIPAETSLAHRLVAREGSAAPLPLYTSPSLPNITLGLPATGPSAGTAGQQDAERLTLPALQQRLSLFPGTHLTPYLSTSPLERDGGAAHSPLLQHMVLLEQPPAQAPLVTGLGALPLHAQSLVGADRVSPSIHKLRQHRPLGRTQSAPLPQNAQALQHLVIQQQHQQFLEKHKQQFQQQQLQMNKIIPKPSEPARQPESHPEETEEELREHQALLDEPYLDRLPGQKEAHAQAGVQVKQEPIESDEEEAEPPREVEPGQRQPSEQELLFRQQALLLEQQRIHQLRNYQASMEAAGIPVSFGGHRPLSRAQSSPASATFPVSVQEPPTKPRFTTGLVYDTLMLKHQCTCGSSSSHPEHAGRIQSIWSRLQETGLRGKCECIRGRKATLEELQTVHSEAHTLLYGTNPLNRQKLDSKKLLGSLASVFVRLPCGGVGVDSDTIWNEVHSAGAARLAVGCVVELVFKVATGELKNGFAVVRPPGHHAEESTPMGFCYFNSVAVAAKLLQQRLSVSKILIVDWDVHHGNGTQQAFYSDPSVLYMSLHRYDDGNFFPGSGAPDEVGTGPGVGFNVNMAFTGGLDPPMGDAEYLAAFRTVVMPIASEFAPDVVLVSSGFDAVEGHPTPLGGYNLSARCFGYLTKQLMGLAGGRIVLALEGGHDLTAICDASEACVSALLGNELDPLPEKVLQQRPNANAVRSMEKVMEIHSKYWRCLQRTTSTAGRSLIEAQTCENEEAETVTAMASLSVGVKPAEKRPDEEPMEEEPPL
UniProt P62877, whole entry, looked up: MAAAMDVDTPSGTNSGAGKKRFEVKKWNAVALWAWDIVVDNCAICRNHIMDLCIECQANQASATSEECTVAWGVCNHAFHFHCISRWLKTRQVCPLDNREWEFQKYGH
UniProt P62195, whole entry: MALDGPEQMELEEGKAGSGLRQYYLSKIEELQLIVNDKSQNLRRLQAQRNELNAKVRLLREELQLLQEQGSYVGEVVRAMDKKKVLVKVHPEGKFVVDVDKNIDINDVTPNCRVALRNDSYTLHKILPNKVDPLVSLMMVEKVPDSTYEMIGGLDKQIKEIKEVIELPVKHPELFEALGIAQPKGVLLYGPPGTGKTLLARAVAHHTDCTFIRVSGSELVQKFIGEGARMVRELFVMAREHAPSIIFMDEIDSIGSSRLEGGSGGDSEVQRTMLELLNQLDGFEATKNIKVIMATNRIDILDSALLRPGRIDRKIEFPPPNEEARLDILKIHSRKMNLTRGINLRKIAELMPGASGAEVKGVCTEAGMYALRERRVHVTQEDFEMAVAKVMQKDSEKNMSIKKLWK
UniProt P78406: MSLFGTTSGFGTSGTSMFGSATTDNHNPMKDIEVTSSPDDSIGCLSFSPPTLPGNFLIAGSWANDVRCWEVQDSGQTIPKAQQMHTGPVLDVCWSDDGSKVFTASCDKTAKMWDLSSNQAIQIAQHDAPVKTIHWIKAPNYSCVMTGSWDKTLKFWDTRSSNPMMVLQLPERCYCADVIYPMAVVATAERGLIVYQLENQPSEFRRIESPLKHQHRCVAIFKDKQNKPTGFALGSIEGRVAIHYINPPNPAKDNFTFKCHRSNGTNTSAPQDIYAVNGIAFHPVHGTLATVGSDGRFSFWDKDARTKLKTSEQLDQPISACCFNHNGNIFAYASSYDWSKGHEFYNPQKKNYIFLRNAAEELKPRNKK
UniProt P61421, whole entry: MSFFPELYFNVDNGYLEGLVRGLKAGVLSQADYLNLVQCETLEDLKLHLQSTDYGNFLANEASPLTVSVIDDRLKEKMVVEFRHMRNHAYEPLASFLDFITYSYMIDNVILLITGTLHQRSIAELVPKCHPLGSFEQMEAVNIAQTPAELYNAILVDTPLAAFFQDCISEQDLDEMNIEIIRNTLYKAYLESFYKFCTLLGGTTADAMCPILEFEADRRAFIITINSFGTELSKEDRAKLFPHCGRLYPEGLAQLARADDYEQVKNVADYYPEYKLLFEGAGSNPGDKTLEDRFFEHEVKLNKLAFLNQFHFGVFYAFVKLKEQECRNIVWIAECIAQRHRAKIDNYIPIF
UniProt P58340: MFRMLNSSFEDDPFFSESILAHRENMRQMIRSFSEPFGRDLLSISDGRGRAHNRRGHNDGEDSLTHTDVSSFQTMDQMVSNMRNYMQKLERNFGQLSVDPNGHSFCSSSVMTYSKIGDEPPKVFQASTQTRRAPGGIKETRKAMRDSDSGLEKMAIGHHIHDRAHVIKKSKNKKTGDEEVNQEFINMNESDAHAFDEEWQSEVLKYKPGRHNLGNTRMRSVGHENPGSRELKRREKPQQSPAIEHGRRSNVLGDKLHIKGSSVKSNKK
UniProt P61604, whole entry: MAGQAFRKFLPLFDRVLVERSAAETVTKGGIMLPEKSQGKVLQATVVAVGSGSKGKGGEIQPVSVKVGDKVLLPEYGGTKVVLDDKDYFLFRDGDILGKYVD
UniProt P55039: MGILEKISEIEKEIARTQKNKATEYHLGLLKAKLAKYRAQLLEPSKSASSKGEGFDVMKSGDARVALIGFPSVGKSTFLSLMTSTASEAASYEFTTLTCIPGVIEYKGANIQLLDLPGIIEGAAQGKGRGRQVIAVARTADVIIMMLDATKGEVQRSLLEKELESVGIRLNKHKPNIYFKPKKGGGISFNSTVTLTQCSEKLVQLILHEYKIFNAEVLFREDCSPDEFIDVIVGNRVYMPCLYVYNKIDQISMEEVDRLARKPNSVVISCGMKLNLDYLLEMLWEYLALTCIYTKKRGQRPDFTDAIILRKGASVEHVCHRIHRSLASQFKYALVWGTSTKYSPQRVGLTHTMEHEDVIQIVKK
UniProt P61106, whole entry, looked up: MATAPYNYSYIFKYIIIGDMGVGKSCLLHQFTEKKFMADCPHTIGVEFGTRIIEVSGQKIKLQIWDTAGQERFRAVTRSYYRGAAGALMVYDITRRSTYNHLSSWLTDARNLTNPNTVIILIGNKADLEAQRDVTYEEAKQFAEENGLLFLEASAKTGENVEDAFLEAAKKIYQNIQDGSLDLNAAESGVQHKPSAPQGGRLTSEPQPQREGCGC

Compound in the assay: CN[C@@H]1C[C@H]2O[C@@](C)([C@@H]1OC)n1c3ccccc3c3c4c(c5c6ccccc6n2c5c31)C(=O)NC4 [staurosporine]
Description: log2 fold change of tryptic peptide abundance, ligand vs vehicle (limited proteolysis) (log2 ratio); higher = more trypsin-susceptible (destabilized). Conditions: ligand concentration: 20 uM; sample: K562 cleared lysate; digestion: 4 min, 22 C (HT-PELSA RT4min, Orbitrap Astral).
Take “UniProt P62820 (peptide sequence: MGPGATAGGAEK, peptide start residue: 176)”: the log2 fold change is -0.0534. As for “RPL7A (peptide sequence: GDVPTKRPPVLR, peptide start residue: 126) (UniProt P62424)”, the figure is 0.148; as for “COG7 (peptide sequence: FLADDFDVK, peptide start residue: 6) (UniProt P83436)”, 0.206.

In the case of “UniProt P63165 (peptide sequence: LKESYCQR, peptide start residue: 47)”, the log2 fold change is 0.115. Turning to “FAU (peptide sequence: RFVNVVPTFGK, peptide start residue: 115) (UniProt P62861)”, the log2 fold change is 0.0931. As for “MRPS35 (peptide sequence: TPGNERPPR, peptide start residue: 41) (UniProt P82673)”, the figure is -0.413; as for “SSBP2 (peptide sequence: ETCEHSSEAK, peptide start residue: 80) (UniProt P81877)”, -0.242.

On to “MAZ (peptide sequence: SFSRPDHLNSHVR, peptide start residue: 345) (UniProt P56270)”, for which the log2 fold change was 0.477. As for “UniProt P62826 (peptide sequence: SIVFHRK, peptide start residue: 135)”, the figure is 0.328; as for “BLOC1S1 (peptide sequence: TLQVQAAQFAK, peptide start residue: 90) (UniProt P78537)”, 0.15; as for “MLLT10 (peptide sequence: FTNANFQEVSAHTSSGKDVSETR, peptide start residue: 289) (UniProt P55197)”, -0.397. Consider “NAA20 (peptide sequence: VSNQVAVNMYK, peptide start residue: 114) (UniProt P61599)”, for which the log2 fold change was 0.371. In the case of “VBP1 (peptide sequence: YKFMELNLAQKK, peptide start residue: 60) (UniProt P61758)”, the log2 fold change is 0.444. Regarding “VAMP2 (peptide sequence: LQQTQAQVDEVVDIMR, peptide start residue: 32) (UniProt P63027)”, the log2 fold change is -0.177. As for “UBXN2A (peptide sequence: CVSPAEQK, peptide start residue: 51) (UniProt P68543)”, the log2 fold change is -0.255.

Take “UniProt P58005 (peptide sequence: HYIAIMAAAR, peptide start residue: 113)”: the log2 fold change was -0.266. In the case of “UniProt P61081 (peptide sequence: VGQGYPHDPPK, peptide start residue: 82)”, the log2 fold change is 0.25.

“KLF3 (peptide sequence: SDHLALHR, peptide start residue: 389) (UniProt P57682)”: the log2 fold change came out at 0.427. With “UniProt P55916 (peptide sequence: SDRKYSGTMDAYR, peptide start residue: 155)”, the log2 fold change stood at 0.164. As for “HDAC4 (peptide sequence: NLNHCISSDPR, peptide start residue: 190) (UniProt P56524)”, the log2 fold change was found to be 0.31.

Consider “UniProt P62877 (peptide sequence: QVCPLDNR, peptide start residue: 92)”, for which the log2 fold change was -0.0559. Turning to “UniProt P62195 (peptide sequence: TMLELLNQLDGFEATK, peptide start residue: 272)”, the log2 fold change was -0.319. For the target “RAE1 (peptide sequence: FSFWDKDAR, peptide start residue: 297) (UniProt P78406)”, the log2 fold change was -0.602. In the case of “ATP6V0D1 (peptide sequence: LLFEGAGSNPGDKTLEDR, peptide start residue: 276) (UniProt P61421)”, the log2 fold change was 0.283.

As to “UniProt P61221 (peptide sequence: LCIEVTPQSK, peptide start residue: 37)”, the log2 fold change was 0.462. In the case of “MLF1 (peptide sequence: DLLSISDGR, peptide start residue: 40) (UniProt P58340)”, the log2 fold change was 0.176. With “HSPE1 (peptide sequence: GGIMLPEK, peptide start residue: 29) (UniProt P61604)”, the log2 fold change is -0.171. Next, “DRG2 (peptide sequence: YALVWGTSTK, peptide start residue: 332) (UniProt P55039)”: -0.198.

For “UniProt P61106 (peptide sequence: GAAGALMVYDITRR, peptide start residue: 83)”, the log2 fold change was 0.195.

The values are drawn from the supplement of paper PMC12819154, “High-throughput peptide-centric local stability assay extends protein–ligand identification to membrane proteins, tissues and bacteria” (Nature Structural & Molecular Biology, 2025).
